{"source": "patent US6429191B1", "about": "“Treatment of hearing impairments” (Genentech, Inc., priority 1996, dated 2002)", "key": {"[1]": {"tested_on": "SGNs in cochlear explants", "test": "Protective effects in cochlear explant cultures co-treated with ototoxins, SGN peripheral axon count", "format": "cell-based, rat", "settings": "growth factor added together with ototoxin; data not shown", "description": "(§1) FIGS. 9A and 9B depict quantitation of protective effects of NT-4/5 on SGNs (FIG. 9A) and hair cells (FIG. 9B). […] The same experimental procedures were performed as in FIGS. 6A and 6B. The error bars are SEM and ** indicate that as compared to the cultures containing an ototoxin alone, p<0.001. “Con” indicates control culture.\nFIG. 10 depicts quantitation of neuroprotection of different neurotrophins against sodium salicylate (Sal) and gentamicin (Gent). […] Sodium salicylate (5 mM) or gentamicin (3 mM) was added either alone or in combination with one of the neurotrophins (20 ng/ml) to 2-day cultures and the cultures were kept for 2 more days. The same experimental procedures were performed as in FIGS. 6A and 6B. […] The error bars are SEM and ** indicate that as compared to the cultures containing an ototoxin alone, p<0.001.\nThe protective effect of neurotrophins against ototoxicity was determined in the organotypic cultures of postnatal cochlear explants described in the Examples above. […] A human recombinant neurotrophin (Genentech, Inc.) or other growth factors, alone or in combination, was added to the culture at the same time the ototoxin was added. […]"}, "[2]": {"tested_on": "hair cells in cochlear explants", "test": "Protective effects in cochlear explant cultures co-treated with ototoxins, hair cell count", "format": "cell-based, rat", "settings": "growth factor added together with ototoxin; data not shown", "description": "as §1\nThe protective effect of neurotrophins against ototoxicity was determined in the organotypic cultures of postnatal cochlear explants described in the Examples above. […] A human recombinant neurotrophin (Genentech, Inc.) or other growth factors, alone or in combination, was added to the culture at the same time the ototoxin was added.\nTwo days after treatment with ototoxins or co-treatment with ototoxins and neurotrophins (or other growth factors), the cochlear explant cultures were fixed in 4% paraformaldehyde in 0.1 M phosphate buffer (pH 7.4) for 30 min, washed in PBS, and subjected to double histochemical staining of the cochlear explant cultures. After incubation with the monoclonal antibody N52 against neurofilament protein (200 kd) in 1% Triton X100 containing 3% normal goat serum (“NGS”) for 2 days at 4° C., the explants were incubated with a Texas red-conjugated goat anti-mouse secondary antibody (1:70; Cappel) at room temperature for 40 min. […]"}}, "note": "At least one compound was matched to its structure with a doubt left.", "data": [{"molecule": "CC1=C(/C=C/C(C)=C/C=C/C(C)=C/C(=O)O)C(C)(C)CCC1", "note": "[retinoic acid, reference compound]", "values": [{"measurement": "protective effects on SGNs against ototoxins", "setting": "[1]", "result": "did not show detectable protective effects"}, {"measurement": "protective effects on hair cells against ototoxins", "setting": "[2]", "result": "did not show detectable protective effects"}]}]}
